Data on three molecules can be found in publication PMC9064079.

Amino acid sequences for entries named in this document (tags omitted).
UniProt P06733: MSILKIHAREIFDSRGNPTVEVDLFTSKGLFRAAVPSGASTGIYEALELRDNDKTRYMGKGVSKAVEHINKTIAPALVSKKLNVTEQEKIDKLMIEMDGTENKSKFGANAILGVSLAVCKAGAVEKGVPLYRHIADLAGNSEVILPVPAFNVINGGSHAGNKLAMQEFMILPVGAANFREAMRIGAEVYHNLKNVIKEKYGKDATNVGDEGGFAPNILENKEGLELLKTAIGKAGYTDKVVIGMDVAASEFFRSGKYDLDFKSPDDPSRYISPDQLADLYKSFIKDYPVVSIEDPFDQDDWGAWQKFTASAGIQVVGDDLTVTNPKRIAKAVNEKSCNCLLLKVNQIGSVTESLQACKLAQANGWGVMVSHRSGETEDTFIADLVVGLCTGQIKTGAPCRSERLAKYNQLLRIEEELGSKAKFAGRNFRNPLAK
UniProt P35579: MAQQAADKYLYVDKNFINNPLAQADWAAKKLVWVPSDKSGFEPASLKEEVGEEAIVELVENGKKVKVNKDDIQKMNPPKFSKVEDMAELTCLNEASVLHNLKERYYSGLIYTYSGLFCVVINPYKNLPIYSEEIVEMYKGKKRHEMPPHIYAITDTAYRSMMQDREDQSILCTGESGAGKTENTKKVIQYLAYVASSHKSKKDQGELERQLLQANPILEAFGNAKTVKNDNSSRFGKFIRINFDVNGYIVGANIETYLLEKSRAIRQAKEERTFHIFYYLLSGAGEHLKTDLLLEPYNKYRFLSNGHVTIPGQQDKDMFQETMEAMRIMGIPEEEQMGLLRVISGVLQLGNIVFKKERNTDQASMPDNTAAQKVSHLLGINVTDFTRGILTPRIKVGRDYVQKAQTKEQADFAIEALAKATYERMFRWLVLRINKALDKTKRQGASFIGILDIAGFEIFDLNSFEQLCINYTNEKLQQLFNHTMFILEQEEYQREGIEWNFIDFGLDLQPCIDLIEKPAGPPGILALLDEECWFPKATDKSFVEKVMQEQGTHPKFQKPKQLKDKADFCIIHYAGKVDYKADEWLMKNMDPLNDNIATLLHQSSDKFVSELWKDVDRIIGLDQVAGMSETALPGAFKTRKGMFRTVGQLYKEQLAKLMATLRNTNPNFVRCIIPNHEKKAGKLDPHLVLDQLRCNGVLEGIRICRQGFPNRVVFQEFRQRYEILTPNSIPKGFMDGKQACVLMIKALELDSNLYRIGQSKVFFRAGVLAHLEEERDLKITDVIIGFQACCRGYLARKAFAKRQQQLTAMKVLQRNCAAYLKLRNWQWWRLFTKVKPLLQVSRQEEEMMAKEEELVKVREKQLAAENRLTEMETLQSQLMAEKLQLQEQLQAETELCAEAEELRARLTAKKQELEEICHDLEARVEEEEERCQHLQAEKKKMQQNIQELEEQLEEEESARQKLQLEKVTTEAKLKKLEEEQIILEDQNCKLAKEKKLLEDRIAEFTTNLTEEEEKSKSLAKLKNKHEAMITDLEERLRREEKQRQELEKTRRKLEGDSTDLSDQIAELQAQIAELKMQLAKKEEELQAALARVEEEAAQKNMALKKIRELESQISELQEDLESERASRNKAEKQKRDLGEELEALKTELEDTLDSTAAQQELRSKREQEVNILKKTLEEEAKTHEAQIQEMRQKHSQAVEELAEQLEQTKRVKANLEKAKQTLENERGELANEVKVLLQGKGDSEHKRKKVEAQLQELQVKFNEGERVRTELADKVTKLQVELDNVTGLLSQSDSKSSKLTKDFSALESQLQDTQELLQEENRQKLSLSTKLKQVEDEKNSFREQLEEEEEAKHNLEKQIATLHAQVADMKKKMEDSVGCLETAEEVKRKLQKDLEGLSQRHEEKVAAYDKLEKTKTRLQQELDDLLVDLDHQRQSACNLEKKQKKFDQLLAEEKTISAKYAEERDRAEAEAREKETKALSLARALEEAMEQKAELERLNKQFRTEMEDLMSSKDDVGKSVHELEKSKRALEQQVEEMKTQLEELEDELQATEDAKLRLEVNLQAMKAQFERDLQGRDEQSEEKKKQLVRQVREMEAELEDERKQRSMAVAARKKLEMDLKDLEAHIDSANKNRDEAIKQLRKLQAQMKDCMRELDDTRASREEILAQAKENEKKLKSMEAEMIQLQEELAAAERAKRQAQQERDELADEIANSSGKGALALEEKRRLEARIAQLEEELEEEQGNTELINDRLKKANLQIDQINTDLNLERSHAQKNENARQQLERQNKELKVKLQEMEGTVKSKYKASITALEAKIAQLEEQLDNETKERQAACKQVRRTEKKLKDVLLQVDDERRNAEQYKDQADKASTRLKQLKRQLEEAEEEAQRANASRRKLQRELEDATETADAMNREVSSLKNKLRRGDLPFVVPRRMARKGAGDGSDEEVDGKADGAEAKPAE

The target in test [1] is Purified human Zn7-MT-3 (metallothionein 3) (human) (UniProt P25713). The test is described as follows: pull-down; Zn7-MT-3 cross-linked agarose beads incubated with HK-2 lysate; eluates read by SDS-PAGE and western blotting; only the target purified. On the technique in general: In western blotting, separated proteins are transferred to a membrane and probed.
Test [2] deals with V5-tagged MT-3 (human) (UniProt P25713). Put plainly: co-IP; anti-V5 antibody with lysate of HK-2 cells expressing MT-3-V5 (1000 ug, pre-cleared), Protein A/G magnetic beads (legend: antibody cross-linked to agarose beads); washes 25 mM Tris-HCl, 150 mM NaCl, 0.05% Tween-20, pH 7.4; western blotting.

No constants are given. Whether binding was seen depends on the method and setting. Binding seen in cells or lysates may run through a third protein. Some entries that bind do so weakly or less than the wild type.

For “Enolase 1 (from UniProt P06733 1-434) (enzyme)”, the binding result in test [1] and in test [2] was “binds” throughout.

With “Myosin heavy chain-9, non-muscle (from UniProt P35579 1-1960)”, the binding result in test [2] was “binds”.

B1: Aldolase A (enzyme, UniProt P04075 1-364)
chain: MPYQYPALTPEQKKELSDIAHRIVAPGKGILAADESTGSIAKRLQSIGTENTEENRRFYRQLLLTADDRVNPCIGGVILFHETLYQKADDGRPFPQVIKSKGGVVGIKVDKGVVPLAGTNGETTTQGLDGLSERCAQYKKDGADFAKWRCVLKIGEHTPSALAIMENANVLARYASICQQNGIVPIVEPEILPDGDHDLKRCQYVTEKVLAAVYKALSDHHIYLEGTLLKPNMVTPGHACTQKFSHEEIAMATVTALRRTVPPAVTGITFLSGGQSEEEASINLNAINKCPLLKPWALTFSYGRALQASALKAWGGKKENLKAAQEEYVKRALANSLACQGKYTPSGQAGAAASESLFVSNHAY
As for B1, the binding entry in test [1] is reported as “binds”.
